According to patent US20240189263A1, “DERIVATIZED C60 MOLECULES AND METHODS AND MATERIALS FOR USING DERIVATIZED C60 MOLECULES TO REDUCE RADIATION INJURY” (Mayo Foundation for Medical Education and Research, priority 2021, published 2024):
At least one compound was matched to its structure with a doubt left.

Test: Zeta-potential of C60-ser aggregates
Format: physicochemical
Details: higher temperatures, greater than 37° C., 10 mg/mL in deionized water
Protocol: Analysis was performed using a ZEN 3600 Malvern Zetasizer (Worcestershire, UK) equipped with a 633 nm laser. The electrophoretic mobilities (p) of the aggregates was measured by applying an electric field to the C60-ser solution and measuring the speed and direction of the aggregate's motion. Zeta-potentials were calculated using the solvent viscosity (n) and the water dielectric constant (e). To perform the measurements, C60-ser molecules were dissolved in deionized water, and the solution electrical conductivity was adjusted to 25-50 μS/cm by addition of small amounts of neutral 2-(N-morpholino)ethanesulfonic acid (MES) buffer. The zeta-potential of C60-ser aggregates was measured at a concentration of 0.1 mg/mL in deionized water (FIG. 5A) and 10 mg/mL in deionized water (FIG. 5B).

SMILES: O=C(NC(CO)CO)C1(C(=O)NC(CO)CO)C23c4c5c6c7c8c4-c4c2c2c9c%10c4C4%11c%12c-%10c%10c%13c%14c%12-c%12c(c-7c7c%15c%12C%14%12C(C(=O)NC(CO)CO)(C(=O)NC(CO)CO)C%12%14c%12c%16c%17c%18c(c%12-%15)C7%12C(C(=O)NC(CO)CO)(C(=O)NC(CO)CO)C6%12c6c-5c5c7c(c6-%18)C%176C(C(=O)NC(CO)CO)(C(=O)NC(CO)CO)C6%12c6c-7c(c-2c2c6-c6c%12c-%16c%14c-%13c6C%106C(C(=O)NC(CO)CO)(C(=O)NC(CO)CO)C926)C513)C84C%11(C(=O)NC(CO)CO)C(=O)NC(CO)CO (stereo not shown) [C60-ser, C60-serinol]
- zeta-potential of aggregates: −7.3 f 12.1 mV
